Data: the supplement of paper PMC10849652
Some of the results follow.

Chains of the proteins cited; added tags and fusions are not shown. Lines headed by an entry give the natural chain unless they say otherwise; changes in a name come on top.
UniProt P55809: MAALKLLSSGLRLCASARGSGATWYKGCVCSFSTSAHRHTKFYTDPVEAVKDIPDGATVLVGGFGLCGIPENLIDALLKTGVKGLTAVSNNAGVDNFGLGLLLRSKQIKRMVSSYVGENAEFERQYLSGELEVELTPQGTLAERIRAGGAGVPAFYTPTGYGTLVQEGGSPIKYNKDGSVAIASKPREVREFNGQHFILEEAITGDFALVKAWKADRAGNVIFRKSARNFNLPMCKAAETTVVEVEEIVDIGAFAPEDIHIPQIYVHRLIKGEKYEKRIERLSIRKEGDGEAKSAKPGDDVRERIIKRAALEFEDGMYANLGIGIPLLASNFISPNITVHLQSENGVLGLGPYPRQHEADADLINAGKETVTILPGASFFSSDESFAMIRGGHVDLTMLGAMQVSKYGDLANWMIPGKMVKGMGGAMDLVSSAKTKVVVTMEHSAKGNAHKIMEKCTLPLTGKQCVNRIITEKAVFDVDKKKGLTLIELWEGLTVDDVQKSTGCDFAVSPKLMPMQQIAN
UniProt Q9H1E3: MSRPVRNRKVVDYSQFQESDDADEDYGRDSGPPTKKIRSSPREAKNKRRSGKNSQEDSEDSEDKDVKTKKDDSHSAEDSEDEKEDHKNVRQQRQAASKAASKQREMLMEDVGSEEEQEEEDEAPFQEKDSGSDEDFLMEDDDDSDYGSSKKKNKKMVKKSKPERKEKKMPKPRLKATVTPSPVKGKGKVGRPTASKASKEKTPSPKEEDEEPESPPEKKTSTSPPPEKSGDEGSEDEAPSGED
UniProt Q99571: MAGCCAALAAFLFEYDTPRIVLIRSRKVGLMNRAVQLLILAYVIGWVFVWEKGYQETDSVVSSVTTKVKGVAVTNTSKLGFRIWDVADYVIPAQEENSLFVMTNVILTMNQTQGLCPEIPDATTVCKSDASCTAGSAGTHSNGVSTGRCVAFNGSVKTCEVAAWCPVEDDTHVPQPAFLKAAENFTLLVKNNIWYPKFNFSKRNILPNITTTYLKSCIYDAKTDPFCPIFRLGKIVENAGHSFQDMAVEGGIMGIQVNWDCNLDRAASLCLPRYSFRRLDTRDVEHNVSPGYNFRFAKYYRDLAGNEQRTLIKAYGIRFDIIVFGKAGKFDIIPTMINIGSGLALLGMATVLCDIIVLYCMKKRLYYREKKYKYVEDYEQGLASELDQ
UniProt Q13416: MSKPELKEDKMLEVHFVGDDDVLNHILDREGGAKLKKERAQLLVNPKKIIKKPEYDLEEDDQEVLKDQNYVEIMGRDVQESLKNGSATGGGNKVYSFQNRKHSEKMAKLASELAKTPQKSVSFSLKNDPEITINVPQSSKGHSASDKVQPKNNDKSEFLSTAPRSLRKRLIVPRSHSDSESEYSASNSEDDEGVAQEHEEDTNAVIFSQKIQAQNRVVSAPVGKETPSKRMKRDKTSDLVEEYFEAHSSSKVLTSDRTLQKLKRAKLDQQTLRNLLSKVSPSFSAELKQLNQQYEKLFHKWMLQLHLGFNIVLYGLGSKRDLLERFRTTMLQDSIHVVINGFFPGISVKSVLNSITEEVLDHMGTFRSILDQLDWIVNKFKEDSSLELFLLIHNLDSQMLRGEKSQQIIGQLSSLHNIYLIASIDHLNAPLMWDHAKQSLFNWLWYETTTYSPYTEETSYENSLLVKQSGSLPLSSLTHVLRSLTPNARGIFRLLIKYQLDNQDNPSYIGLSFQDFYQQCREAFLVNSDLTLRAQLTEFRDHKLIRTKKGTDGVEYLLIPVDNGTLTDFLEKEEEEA
UniProt O15460: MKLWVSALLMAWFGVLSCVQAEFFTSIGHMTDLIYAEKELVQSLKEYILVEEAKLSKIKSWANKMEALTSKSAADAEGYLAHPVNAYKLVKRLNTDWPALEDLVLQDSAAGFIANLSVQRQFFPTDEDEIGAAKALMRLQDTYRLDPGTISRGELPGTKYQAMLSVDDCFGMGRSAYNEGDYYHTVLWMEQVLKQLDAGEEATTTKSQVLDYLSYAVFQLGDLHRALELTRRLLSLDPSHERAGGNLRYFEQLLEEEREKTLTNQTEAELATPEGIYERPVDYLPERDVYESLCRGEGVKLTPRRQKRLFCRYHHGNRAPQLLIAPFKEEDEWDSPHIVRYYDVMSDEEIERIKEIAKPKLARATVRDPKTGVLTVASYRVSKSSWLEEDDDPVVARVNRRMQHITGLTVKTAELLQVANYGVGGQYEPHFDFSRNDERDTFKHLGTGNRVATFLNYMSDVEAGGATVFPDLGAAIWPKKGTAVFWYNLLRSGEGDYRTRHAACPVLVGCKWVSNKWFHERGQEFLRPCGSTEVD
UniProt Q6ZVK8: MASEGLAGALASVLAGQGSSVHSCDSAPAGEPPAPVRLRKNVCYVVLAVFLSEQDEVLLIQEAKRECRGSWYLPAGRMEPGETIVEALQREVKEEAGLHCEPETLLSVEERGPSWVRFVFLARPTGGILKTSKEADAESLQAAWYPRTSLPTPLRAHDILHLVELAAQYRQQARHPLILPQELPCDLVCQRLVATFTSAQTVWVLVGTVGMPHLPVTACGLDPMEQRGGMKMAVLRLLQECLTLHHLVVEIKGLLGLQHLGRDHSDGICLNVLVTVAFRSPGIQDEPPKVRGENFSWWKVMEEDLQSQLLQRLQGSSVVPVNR
UniProt Q86UD1: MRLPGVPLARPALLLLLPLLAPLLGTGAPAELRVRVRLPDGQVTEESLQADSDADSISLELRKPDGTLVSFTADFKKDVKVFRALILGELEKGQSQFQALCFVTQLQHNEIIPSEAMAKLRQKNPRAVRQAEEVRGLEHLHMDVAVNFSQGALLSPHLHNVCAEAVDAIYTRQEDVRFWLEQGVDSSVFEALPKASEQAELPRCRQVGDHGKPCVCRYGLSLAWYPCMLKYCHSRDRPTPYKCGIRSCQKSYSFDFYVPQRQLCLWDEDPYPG

How the values were obtained:
Assay in all cases: log2 fold change, soluble protein after heating vs DMSO (PISA); higher = thermal stabilisation; K562 cells, 10 uM, 30 min; active = over 0.2 and 3.5 SD of the protein, either way, in both replicates (recomputed)
bafetinib = compound: Cc1ccc(NC(=O)c2ccc(CN3CC[C@H](N(C)C)C3)c(C(F)(F)F)c2)cc1Nc1nccc(-c2cncnc2)n1 [bafetinib]
Procedure, shortened: (§1)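 Quantification of soluble protein used TMTpro 16plex LC-MS/MS, with channel sums equalised. Samples were the supernatant after 21,000xg for 90 min of pooled aliquots from K562 cells (2×10^6 cells/mL) treated with 10 μM compound for 30 min, heated for 3 min over 48°C-58°C, and extracted in PBS with 0.5% NP-40 at 4°C. Values, from duplicates, describe thermal stability against control samples on a log2 fold-change scale.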

[1] = compound: Cc1cccc(CC(=O)N2CCc3c2ccc(-c2cn(C)c4ncnc(N)c24)c3F)n1
Procedure, shortened: as §1

nilotinib = compound: Cc1cn(-c2cc(NC(=O)c3ccc(C)c(Nc4nccc(-c5cccnc5)n4)c3)cc(C(F)(F)F)c2)cn1 [nilotinib]
Procedure, shortened: as §1

[2] = compound: Cc1nc(Nc2n[nH]c3c2CN(C(=O)N[C@H](CN(C)C)c2ccccc2)C3(C)C)c2sccc2n1
Procedure, shortened: as §1

dasatinib = compound: Cc1nc(Nc2ncc(C(=O)Nc3c(C)cccc3Cl)s2)cc(N2CCN(CCO)CC2)n1 [dasatinib]
Procedure, shortened: as §1

[3] = compound: Cc1ncc(-c2ccnc(Nc3ccc(S(C)(=O)=O)cc3)n2)n1C(C)C
Procedure, shortened: as §1

[4] = compound: Cn1cc(-c2ccc3c(c2)CCN3C(=O)Cc2cccc(C(F)(F)F)c2)c2c(N)ncnc21
Procedure, shortened: as §1

[5] = compound: Cn1cc(-c2ccc3nnc(C(F)(F)c4ccc5ncccc5c4)n3n2)cn1
Procedure, shortened: as §1

tipifarnib = compound: Cn1cncc1[C@@](N)(c1ccc(Cl)cc1)c1ccc2c(c1)c(-c1cccc(Cl)c1)cc(=O)n2C [tipifarnib]
Procedure, shortened: as §1

mubritinib = compound: FC(F)(F)c1ccc(/C=C/c2nc(COc3ccc(CCCCn4ccnn4)cc3)co2)cc1 [mubritinib]
Procedure, shortened: as §1

[6] = compound: NC(=O)Nc1cc(-c2cccc(F)c2)sc1C(=O)N[C@H]1CCCNC1
Procedure, shortened: as §1

[7] = compound: NC(=O)c1cnc(N[C@@H]2CCCC[C@@H]2N)nc1Nc1cccc(-n2nccn2)c1
Procedure, shortened: as §1

[8] = compound: NC1(c2ccc(-c3nc4ccn5c(=O)[nH]nc5c4cc3-c3ccccc3)cc2)CCC1
Procedure, shortened: as §1

[9] = compound: NCC(=O)Nc1ccc(-n2nc(C(F)(F)F)cc2-c2ccc3c(ccc4ccccc43)c2)cc1
Procedure, shortened: as §1

entinostat = compound: Nc1ccccc1NC(=O)c1ccc(CNC(=O)OCc2cccnc2)cc1 [entinostat]
Procedure, shortened: as §1

vorinostat = compound: O=C(CCCCCCC(=O)Nc1ccccc1)NO [vorinostat]
Procedure, shortened: as §1

citarinostat = compound: O=C(CCCCCCNC(=O)c1cnc(N(c2ccccc2)c2ccccc2Cl)nc1)NO [citarinostat]
Procedure, shortened: as §1

silmitasertib = compound: O=C(O)c1ccc2c(c1)nc(Nc1cccc(Cl)c1)c1ccncc12 [silmitasertib]
Procedure, shortened: as §1

[10] = compound: O=C1NC(=O)C(c2cnc3ccccn23)=C1c1cn2c3c(cc(F)cc13)CN(C(=O)N1CCCCC1)CC2
Procedure, shortened: as §1

[11] = compound: c1cc(OCCN2CCCCC2)cc(-c2n[nH]c3ccc(-c4nnc[nH]4)cc23)c1
Procedure, shortened: as §1

| Target | log2 fold change (bafetinib) | log2 fold change [1] | log2 fold change (nilotinib) | log2 fold change [2] | log2 fold change (dasatinib) | log2 fold change [3] | log2 fold change [4] | log2 fold change [5] | log2 fold change (tipifarnib) | log2 fold change (mubritinib) | log2 fold change [6] | log2 fold change [7] | log2 fold change [8] | log2 fold change [9] | log2 fold change (entinostat) | log2 fold change (vorinostat) | log2 fold change (citarinostat) | log2 fold change (silmitasertib) | log2 fold change [10] | log2 fold change [11] |
| --- | --- | --- | --- | --- | --- | --- | --- | --- | --- | --- | --- | --- | --- | --- | --- | --- | --- | --- | --- | --- |
| OXCT1 (UniProt P55809) | inactive: -0.028 | inactive: 0.011 | inactive: 0.113 | inactive: -0.013 | inactive: -0.007 | inactive: -0.022 | inactive: 0.028 | inactive: 0.015 | inactive: 0.029 | inactive: 0.029 | inactive: -0.006 | inactive: -0.014 | inactive: -0.015 | inactive: -0.008 | inactive: -0.004 | inactive: -0.009 | inactive: 0.011 | inactive: -0.018 | inactive: -0.041 | inactive: -0.012 |
| NUCKS1 (UniProt Q9H1E3) | inactive: -0.114 | inactive: -0.128 | inactive: -0.028 | inactive: -0.13 | inactive: 0.037 | inactive: 0.169 | inactive: 0.005 | inactive: 0.055 | inactive: 0.059 | inactive: 0.034 | active: -0.405 | inactive: 0.035 | inactive: 0.014 | inactive: 0.04 | inactive: -0.01 | inactive: -0.08 | inactive: -0.022 | inactive: -0.008 | inactive: -0.044 | inactive: 0.079 |
| P2RX4 isoform 2 (UniProt Q99571) | inactive: 0.01 |  | inactive: 0.012 | inactive: 0.113 | inactive: -0.025 | inactive: -0.036 | inactive: 0.042 | inactive: 0.145 | inactive: -0.059 | inactive: 0.095 | inactive: -0.035 | inactive: 0.004 | inactive: -0.178 | inactive: 0.346 | inactive: -0.065 |  |  | inactive: 0.162 | inactive: 0.093 |  |
| ORC2 (UniProt Q13416) | inactive: -0.085 | inactive: 0.037 | inactive: 0.036 | inactive: 0.034 |  | inactive: 0.127 |  | inactive: 0.012 | inactive: -0.058 | inactive: 0.018 | inactive: 0.007 |  | inactive: -0.045 |  | inactive: 0.078 | inactive: 0.204 | inactive: -0.017 | inactive: 0.176 | inactive: -0.058 | inactive: -0.042 |
| P4HA2 (UniProt O15460) | inactive: 0.012 | inactive: -0.007 | inactive: 0.056 | inactive: 0.04 | inactive: -0.057 | inactive: -0.008 | inactive: -0.102 | inactive: -0.02 | inactive: 0.007 | inactive: -0.059 | inactive: -0.034 |  | inactive: -0.129 | inactive: 0.063 | inactive: -0.104 | inactive: -0.047 | inactive: -0.019 | inactive: 0.025 | inactive: 0.201 | inactive: -0.021 |
| NUDT18 (UniProt Q6ZVK8) |  | inactive: -0.034 | inactive: -0.074 | inactive: -0.032 |  | inactive: 0.05 | inactive: -0.057 | inactive: 0.008 | inactive: 0.12 | inactive: 0.199 | inactive: -0.061 | inactive: -0.013 | inactive: -0.017 | inactive: -0.003 | inactive: -0.017 | inactive: -0.069 | inactive: 0.021 | inactive: 0.221 | inactive: 0.049 | inactive: 0.041 |
| OAF (UniProt Q86UD1) |  |  |  |  |  |  |  | inactive: 0.199 |  | inactive: -0.104 | inactive: -0.089 |  | inactive: -0.188 |  | inactive: -0.029 |  |  | inactive: 0.019 |  |  |
| OBSCN (UniProt A6NGQ3) | inactive: -0.156 |  | inactive: -0.397 | inactive: -0.017 |  | inactive: 0.05 | inactive: -0.201 | inactive: 0.192 | inactive: 0.355 |  | inactive: -0.118 | inactive: 0.065 |  |  | inactive: -0.152 |  | inactive: -0.009 |  |  | inactive: -0.041 |

Another view of part of the listing above.
Target	log2 fold change (bafetinib)	log2 fold change [1]	log2 fold change (nilotinib)	log2 fold change [2]	log2 fold change (dasatinib)	log2 fold change [3]	log2 fold change [4]	log2 fold change [5]	log2 fold change (tipifarnib)	log2 fold change (mubritinib)	log2 fold change [6]	log2 fold change [7]	log2 fold change [8]	log2 fold change [9]	log2 fold change (entinostat)	log2 fold change (vorinostat)	log2 fold change (citarinostat)	log2 fold change (silmitasertib)	log2 fold change [10]	log2 fold change [11]
NUDT18 (UniProt Q6ZVK8)		inactive: -0.034	inactive: -0.074	inactive: -0.032		inactive: 0.05	inactive: -0.057	inactive: 0.008	inactive: 0.12	inactive: 0.199	inactive: -0.061	inactive: -0.013	inactive: -0.017	inactive: -0.003	inactive: -0.017	inactive: -0.069	inactive: 0.021	inactive: 0.221	inactive: 0.049	inactive: 0.041
OBSCN (UniProt A6NGQ3)	inactive: -0.156		inactive: -0.397	inactive: -0.017		inactive: 0.05	inactive: -0.201	inactive: 0.192	inactive: 0.355		inactive: -0.118	inactive: 0.065			inactive: -0.152		inactive: -0.009			inactive: -0.041
